According to article PMC9068901 (Frontiers in Chemistry, 2022):

Assays:
trypsin = experiment: Activity-based probe labelling of trypsin (SDS-PAGE, Western blot, streptavidin-HRP); assay type: binding; conditions: probe 50 μM, 30 min, 37°C
Experimental: Samples of recombinant protease (trypsin, human airway trypsin-like protease (HAT), matriptase, thrombin or neutrophil elastase, as indicated in the relevant figure legends) were treated with putative ABPs at a concentration of 50 μM, for 30 min, at 37°C. A control sample was prepared by treating recombinant protease with solvent control only. A further sample was prepared where Cbz-Arg^P(OPh)2 was added 30 min prior to the addition of the ABP under examination. […] All treated samples were then denatured with SDS-containing reducing treatment buffer (10 min at 95°C), followed by resolution by SDS-PAGE and subjected to Western blotting. Note, only stable covalent bonds between the ABP and protease active site would survive the harsh denaturing conditions involved in the resolution process. Resolved proteins were then transferred on to nitrocellulose membrane and labelled with streptavidin-HRP. The ABP-protease complex was then visualised following treatment with Luminata Forte HRP substrate.

[1] = general procedure: Fmoc solid-phase peptide synthesis; Fmoc-Lys(Mtt)-Wang resin (Bachem); Biotin-PEG NovaTag resin; DIC/HOBt; conditions: whole synthesis, TFA salt

Q: Which “amount of trypsin giving excellent visual detection” value (trypsin) does the source give for `N=C(N)NCCCN(CC(=O)NCC(=O)NCC(=O)NCCCOCCOCCOCCCNC(=O)CCCC[C@@H]1SC[C@@H]2NC(=O)N[C@@H]21)C(=O)ON1C(=O)CCC1=O` [NAP858] here?
A: Its value is ≥ 200 ng.

Q: With PfpOCO-NArg-Gly-Gly-Ahx-Lys(Biotin)-OH as the compound, how does the crude mass ([1]; scale 0.08 mmol) read?
A: Its crude mass is 107.5 mg.

Q: With SuOCO-NArg-Gly-Gly-Ahx-Lys(Biotin)-OH as the compound, how does the crude mass ([1]; scale 0.1 mmol) read?
A: The crude mass was 140 mg.

Q: With SuOCO-NArg-Gly-Gly-Ahx-Lys-(Epb)-OH as the compound, how does the crude mass ([1]; scale 0.1 mmol) read?
A: The crude mass was 37.3 mg.

Q: What about the crude yield ([1]; scale 0.1 mmol) of the same compound?
A: The crude yield was 37%.
